In this assay the target is p75^NTR in embryonic rat brain lysates (rat) (UniProt P07174). Briefly: embryonic rat brain lysates; method not given.

Amino acid sequences for entries named in this document (tags omitted). Residues count along the entry.
UniProt P07174, residues 30-425: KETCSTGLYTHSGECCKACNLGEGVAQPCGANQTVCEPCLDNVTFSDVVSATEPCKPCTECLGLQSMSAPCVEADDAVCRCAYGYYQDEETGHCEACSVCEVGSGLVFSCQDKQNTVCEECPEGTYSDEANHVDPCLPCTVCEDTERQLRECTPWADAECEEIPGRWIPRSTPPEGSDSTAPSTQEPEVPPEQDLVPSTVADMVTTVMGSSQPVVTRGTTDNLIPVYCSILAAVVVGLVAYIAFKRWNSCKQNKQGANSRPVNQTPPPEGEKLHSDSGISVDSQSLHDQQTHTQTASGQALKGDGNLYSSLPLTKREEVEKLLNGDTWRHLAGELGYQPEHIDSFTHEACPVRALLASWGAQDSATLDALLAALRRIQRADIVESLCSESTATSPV
UniProt D3ZW09, residues 118-1163: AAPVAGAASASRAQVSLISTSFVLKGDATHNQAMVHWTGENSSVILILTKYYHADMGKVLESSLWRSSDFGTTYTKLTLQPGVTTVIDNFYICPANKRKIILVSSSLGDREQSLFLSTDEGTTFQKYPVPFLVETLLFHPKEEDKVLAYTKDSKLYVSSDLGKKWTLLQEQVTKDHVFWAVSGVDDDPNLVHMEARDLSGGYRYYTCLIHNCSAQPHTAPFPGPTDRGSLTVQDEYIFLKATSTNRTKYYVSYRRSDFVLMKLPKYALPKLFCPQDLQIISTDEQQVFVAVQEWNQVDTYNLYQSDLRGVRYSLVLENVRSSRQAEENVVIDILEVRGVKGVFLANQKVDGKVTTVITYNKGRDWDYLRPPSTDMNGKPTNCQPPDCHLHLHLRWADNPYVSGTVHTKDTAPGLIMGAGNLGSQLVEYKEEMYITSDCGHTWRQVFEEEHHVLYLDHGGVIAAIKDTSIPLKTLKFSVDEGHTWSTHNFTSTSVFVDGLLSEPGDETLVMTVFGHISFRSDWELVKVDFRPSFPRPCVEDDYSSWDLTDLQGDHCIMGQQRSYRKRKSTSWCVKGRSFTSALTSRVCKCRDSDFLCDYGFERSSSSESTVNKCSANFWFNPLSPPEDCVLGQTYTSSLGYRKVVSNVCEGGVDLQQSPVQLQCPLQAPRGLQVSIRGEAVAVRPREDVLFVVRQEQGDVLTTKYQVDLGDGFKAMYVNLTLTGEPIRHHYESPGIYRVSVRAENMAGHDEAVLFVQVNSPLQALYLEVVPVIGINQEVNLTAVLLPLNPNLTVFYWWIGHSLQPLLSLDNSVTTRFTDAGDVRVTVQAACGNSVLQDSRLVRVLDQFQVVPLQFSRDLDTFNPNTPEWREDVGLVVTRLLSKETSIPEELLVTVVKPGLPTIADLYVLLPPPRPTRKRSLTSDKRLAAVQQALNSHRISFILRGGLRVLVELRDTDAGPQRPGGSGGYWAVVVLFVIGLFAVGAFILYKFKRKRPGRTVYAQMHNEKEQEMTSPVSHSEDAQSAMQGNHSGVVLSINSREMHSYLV

Results are given in words; binding and its absence hold for the method and conditions named. Some binding calls cover weakened binding; strength is not graded here.

Consider one substance from patent US20130336988A1, “METHODS FOR TREATING EARLY STAGE OR MILD NEUROLOGICAL DISORDERS” (NEW YORK UNIVERSITY, priority 2010, published 2013).

For “SorCS2 in embryonic rat brain lysates (from UniProt D3ZW09 118-1163) (receptor)”, the binding result is reported as “binds”.
